Assay results reported in publication PMC7283227.
Results are given in words; binding and its absence hold for the method and conditions named. Binding seen in cells or lysates may run through a third protein. Some entries that bind do so weakly or less than the wild type. Blank lines part the entries; values can stand above or below the binder they belong to.

Chains of the proteins cited; added tags and fusions are not shown. Residues count along the entry.
UniProt P24821, residues 23-2201: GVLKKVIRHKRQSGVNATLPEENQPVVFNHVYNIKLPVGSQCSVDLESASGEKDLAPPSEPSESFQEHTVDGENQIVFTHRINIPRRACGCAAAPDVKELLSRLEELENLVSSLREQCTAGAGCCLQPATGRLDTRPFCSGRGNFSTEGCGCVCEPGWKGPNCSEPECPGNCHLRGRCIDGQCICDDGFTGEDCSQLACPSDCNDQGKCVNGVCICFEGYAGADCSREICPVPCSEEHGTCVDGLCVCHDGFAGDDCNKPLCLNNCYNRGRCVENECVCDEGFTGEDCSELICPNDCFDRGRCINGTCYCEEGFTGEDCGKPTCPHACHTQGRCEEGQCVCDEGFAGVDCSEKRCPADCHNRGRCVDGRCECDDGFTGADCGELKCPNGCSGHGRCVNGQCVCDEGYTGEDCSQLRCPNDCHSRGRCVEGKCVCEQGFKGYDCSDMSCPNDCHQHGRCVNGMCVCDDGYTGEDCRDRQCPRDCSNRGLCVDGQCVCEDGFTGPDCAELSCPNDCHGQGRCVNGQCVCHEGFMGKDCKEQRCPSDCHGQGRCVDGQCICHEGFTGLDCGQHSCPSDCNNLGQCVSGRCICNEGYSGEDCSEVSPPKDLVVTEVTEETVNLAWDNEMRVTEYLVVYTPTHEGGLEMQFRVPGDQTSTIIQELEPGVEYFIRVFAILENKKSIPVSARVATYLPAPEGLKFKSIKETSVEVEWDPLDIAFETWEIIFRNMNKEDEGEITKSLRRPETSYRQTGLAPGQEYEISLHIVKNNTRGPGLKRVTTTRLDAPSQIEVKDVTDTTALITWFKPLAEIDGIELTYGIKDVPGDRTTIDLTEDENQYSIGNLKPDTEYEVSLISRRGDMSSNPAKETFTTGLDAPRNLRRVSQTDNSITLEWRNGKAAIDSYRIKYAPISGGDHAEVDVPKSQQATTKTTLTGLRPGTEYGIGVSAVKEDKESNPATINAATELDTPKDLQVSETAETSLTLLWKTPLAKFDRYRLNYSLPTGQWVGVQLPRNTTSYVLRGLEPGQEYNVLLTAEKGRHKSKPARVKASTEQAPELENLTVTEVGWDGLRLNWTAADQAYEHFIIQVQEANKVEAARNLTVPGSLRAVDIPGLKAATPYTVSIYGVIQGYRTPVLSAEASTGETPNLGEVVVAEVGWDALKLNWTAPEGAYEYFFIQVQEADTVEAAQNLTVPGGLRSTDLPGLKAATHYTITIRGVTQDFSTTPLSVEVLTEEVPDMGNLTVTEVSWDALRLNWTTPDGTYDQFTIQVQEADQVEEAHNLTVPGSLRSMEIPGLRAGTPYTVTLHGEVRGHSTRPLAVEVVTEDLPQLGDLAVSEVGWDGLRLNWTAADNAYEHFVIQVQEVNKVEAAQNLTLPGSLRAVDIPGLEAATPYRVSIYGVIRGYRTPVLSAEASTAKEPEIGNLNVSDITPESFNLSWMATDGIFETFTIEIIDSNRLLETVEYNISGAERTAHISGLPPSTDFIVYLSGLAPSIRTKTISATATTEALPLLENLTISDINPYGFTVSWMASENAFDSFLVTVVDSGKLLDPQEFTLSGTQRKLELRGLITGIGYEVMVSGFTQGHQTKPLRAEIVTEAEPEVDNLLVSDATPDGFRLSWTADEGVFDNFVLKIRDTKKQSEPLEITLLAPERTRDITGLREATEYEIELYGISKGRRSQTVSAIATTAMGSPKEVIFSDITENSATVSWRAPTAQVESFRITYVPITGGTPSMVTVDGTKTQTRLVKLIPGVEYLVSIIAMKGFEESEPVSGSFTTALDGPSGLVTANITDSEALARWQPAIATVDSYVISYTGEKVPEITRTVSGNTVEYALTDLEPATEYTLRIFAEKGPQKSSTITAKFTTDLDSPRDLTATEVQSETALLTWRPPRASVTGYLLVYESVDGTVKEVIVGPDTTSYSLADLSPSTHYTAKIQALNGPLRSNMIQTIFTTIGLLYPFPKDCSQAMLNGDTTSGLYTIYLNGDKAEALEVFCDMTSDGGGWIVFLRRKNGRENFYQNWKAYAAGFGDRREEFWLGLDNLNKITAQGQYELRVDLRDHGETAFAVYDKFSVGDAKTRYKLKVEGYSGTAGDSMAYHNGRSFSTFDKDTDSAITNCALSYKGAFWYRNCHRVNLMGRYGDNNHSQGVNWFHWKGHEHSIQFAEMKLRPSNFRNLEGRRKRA

Key:
[1] = biological target: tenascin-C (human (endogenous in HRECs)) (UniProt P24821); test: co-IP; lysates of HRECs incubated 72 h with 10 ng/ml IL-13, lysis buffer without SDS (25 mM Tris-HCl, 150 mM NaCl, 1% Triton X-100); precipitated with anti-PN, anti-TNC or anti-FN antibodies (IgG as control) overnight at 4 °C and agarose beads; western blot with anti-PN, anti-TNC and anti-FN
[2] = biological target: fibronectin (human (endogenous in HRECs)), P02751; test: as above; details: remark: other sources report otherwise

binding [1]: binds
B1: periostin (protein, UniProt Q15063 22-836)
chain: NNHYDKILAHSRIRGRDQGPNVCALQQILGTKKKYFSTCKNWYKKSICGQKTTVLYECCPGYMRMEGMKGCPAVLPIDHVYGTLGIVGATTTQRYSDASKLREEIEGKGSFTYFAPSNEAWDNLDSDIRRGLESNVNVELLNALHSHMINKRMLTKDLKNGMIIPSMYNNLGLFINHYPNGVVTVNCARIIHGNQIATNGVVHVIDRVLTQIGTSIQDFIEAEDDLSSFRAAAITSDILEALGRDGHFTLFAPTNEAFEKLPRGVLERIMGDKVASEALMKYHILNTLQCSESIMGGAVFETLEGNTIEIGCDGDSITVNGIKMVNKKDIVTNNGVIHLIDQVLIPDSAKQVIELAGKQQTTFTDLVAQLGLASALRPDGEYTLLAPVNNAFSDDTLSMDQRLLKLILQNHILKVKVGLNELYNGQILETIGGKQLRVFVYRTAVCIENSCMEKGSKQGRNGAIHIFREIIKPAEKSLHEKLKQDKRFSTFLSLLEAADLKELLTQPGDWTLFVPTNDAFKGMTSEEKEILIRDKNALQNIILYHLTPGVFIGKGFEPGVTNILKTTQGSKIFLKEVNDTLLVNELKSKESDIMTTNGVIHVVDKLLYPADTPVGNDQLLEILNKLIKYIQIKFVRGSTFKEIPVTVYTTKIITKVVEPKIKVIEGSLQPIIKTEGPTLTKVKIEGEPEFRLIKEGETITEVIHGEPIIKKYTKIIDGVPVEITEKETREERIITGPEIKYTRISTGGGETEETLKKLLQEEVTKVTKFIEGGDGHLFEDEEIKRLLQGDTPVRKLQANKKVQGSRRRLREGRSQ

binding [2]: binds
B2: periostin, Q15063 22-836 (protein)
chain: B1 chain
